Source: PubChem BioAssay AID2685 (National Center for Advancing Translational Sciences (NCATS), 2010)
Some of the results follow. Further columns of the screen follow, without active or inactive calls. Most of these compounds were active or inconclusive in the main read-out, so they are no random draw. Potencies come from curve fits of mixed quality, noted in brackets.

Test: qHTS Assay for Lipid Storage Modulators in Drosophila S3 Cells;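 for cell number change: cells counted by Cell Tracker Red CMTPX staining in the red channel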
Details: BODIPY lipid droplet fluorescence, 18-24 h; for cell number change: measured here: cell count max response, cells fed with added oleic acid
Summary of the method: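 Drosophila S3 cells loaded with oleic acid (400 uM, as added) and compounds at several concentrations; lipid droplets imaged by 488-nm laser-scanning cytometry, 500–530 nm intensity and object ratio to cell channel. Percent activity normalized to 20 uM Triacsin C.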

[1] = measured here: lipid fluorescence (Fed channel) AC50, cells fed with added oleic acid
[2] = measured here: cell number channel AC50, cells fed with added oleic acid

COc1ccc2oc(=O)c(C(=O)N3CCN(C(=O)c4ccco4)CC3)cc2c1
cell number change: -3.48%
AC50 [1]: 0.58 µM [rising, single point]

CCCc1cc(-c2[nH]ncc2-c2ccc(C(=O)OCC)o2)c(O)cc1O
cell number change: -64.5%
AC50 [2]: 18.4 µM [falling, partial curve]
AC50 [1]: 16.4 µM [falling, single point]

CCc1nnc(NC(=O)c2cc(S(=O)(=O)N(CC)CC)ccc2Cl)s1
cell number change: 27.4%

Cc1ccc(NC(=O)COC(=O)/C(=C/c2cccs2)c2cccs2)cc1S(=O)(=O)N(C)C
cell number change: 27.3%
AC50 [2]: 2.06 µM [rising, full curve, poor fit]
AC50 [1]: 2.31 µM [rising, full curve]

O=C(c1ccccn1)N1N=C2/C(=C/c3ccc(F)cc3)CCCC2C1c1ccc(F)cc1 (stereo not drawn)
cell number change: -18.5%
AC50 [1]: 20.6 µM [falling, single point]

CCc1cc(OCCCSc2nc(C)cc(=O)[nH]2)ccc1Cl
cell number change: -38.3%
AC50 [2]: 32.6 µM [falling, single point]

CCc1ccc(NCc2cc3c(C)nn(-c4ccccc4)c3[nH]c2=O)cc1
cell number change: 1.62%
AC50 [1]: 14.6 µM [falling, partial curve]

Cc1ccc(S(=O)(=O)n2c(=O)oc3ccccc32)cc1
cell number change: 4.08%

Cn1c(=O)c(C(=O)CSc2nncs2)c(N)n(Cc2ccccc2)c1=O
cell number change: -2.79%

Cc1cccc(-n2c(C)cc(/C=N/O)c2C)c1
cell number change: 16.1%
AC50 [2]: 0.411 µM [falling, full curve]
AC50 [1]: 0.259 µM [falling, partial curve]

COc1ccc(CNC(=O)C(=O)NCC2CCCN2S(=O)(=O)c2ccccc2)cc1 (stereo not drawn)
cell number change: -7.91%
AC50 [1]: 0.00517 µM [falling, full curve, poor fit]

CCOC(=O)c1cccc(COC(=O)c2cccc(-c3nnc(-c4ccccc4)o3)c2)c1
cell number change: 24.3%
AC50 [1]: 0.291 µM [rising, full curve]

COc1ccc(-c2c(C)nn(Cc3ccccc3)c2N)cc1
cell number change: -5.02%
AC50 [2]: 0.326 µM [rising, partial curve, poor fit]

Cc1nc(NCc2ccc3c(c2)OCO3)c2nnn(Cc3ccccc3)c2n1
cell number change: 64.4%
AC50 [2]: 4.11 µM [rising, full curve]
AC50 [1]: 0.517 µM [rising, full curve, poor fit]

O=c1[nH]c(NC2CCN(S(=O)(=O)c3ccccc3C(F)(F)F)CC2)nc2c1CCCC2
cell number change: 0.806%
AC50 [1]: 0.82 µM [falling, full curve, poor fit]

N#CCC(=O)Nn1c(=S)[nH]c2ccccc2c1=O
cell number change: 5.11%
AC50 [2]: 0.231 µM [rising, full curve, poor fit]

CC(C)Oc1cccc(-c2cc(C(=O)NC(=S)N(C)c3ccccc3C(=O)O)c3ccccc3n2)c1
cell number change: 17.3%
AC50 [1]: 29.1 µM [rising, single point]

COc1ccc(Cc2nc(-c3cccs3)no2)cc1OC
cell number change: 6.16%
AC50 [1]: 29.1 µM [falling, partial curve, poor fit]

CCOc1ccccc1-c1cc(C(=O)N/N=C/c2ccc(O)c(OC)c2)c2ccccc2n1
cell number change: 30.4%
AC50 [2]: 2.91 µM [rising, partial curve]
AC50 [1]: 0.411 µM [falling, partial curve, poor fit]

COC(=O)c1ccc(S(=O)(=O)N2CCCCCC2)n1C
cell number change: -8.56%
AC50 [2]: 0.00461 µM [falling, full curve, poor fit]
AC50 [1]: 2.59 µM [falling, full curve]

O=C(N[C@@H](Cc1ccccc1)C(=O)OCc1ccccc1)c1nc[nH]c1C(=O)N1CCc2ccccc2C1
cell number change: 13.8%
AC50 [1]: 0.259 µM [rising, full curve]

CC(C)CNC(=O)c1coc(=O)c(Br)c1
cell number change: -70.8%
AC50 [2]: 29.1 µM [falling, single point]

COCc1nc(-c2ccc(-c3ccc(OC)cc3)nc2OC)no1
cell number change: 13.5%
AC50 [1]: 3.66 µM [rising, partial curve, poor fit]

Cc1ccc(S(=O)(=O)N2CCN(C(=O)COC(=O)c3oc4ccccc4c3C)CC2)cc1
cell number change: 83.5%
AC50 [2]: 8.2 µM [rising, partial curve]

O=C(OCc1cc2ccccc2[nH]c1=O)c1ccccc1
AC50 [2]: 0.259 µM [rising, partial curve]
AC50 [1]: 0.517 µM [rising, full curve]

C#CC[N+](C)(C)CCCCCCCCCCCC
cell number change: -21.2%
AC50 [1]: 16.4 µM [falling, partial curve]

CC1Cc2ccccc2N1C(=S)NC(=O)c1cccc(Br)c1 (stereo not drawn)
cell number change: 4.31%

O=c1[nH]c2ccccc2n1C1=CCNCC1
cell number change: 32%
AC50 [2]: 29.1 µM [rising, single point]
AC50 [1]: 29.1 µM [rising, single point]

O=C(CCNS(=O)(=O)c1c(Cl)cccc1Cl)OCC(=O)c1ccccc1
cell number change: 35.1%
AC50 [2]: 29.1 µM [rising, single point]
AC50 [1]: 29.1 µM [rising, single point]

Cc1ccc(S(=O)(=O)Cc2ccc(C(=O)NC3CCCC3)o2)cc1
cell number change: 6.11%
AC50 [1]: 29.1 µM [rising, single point]

CN1CCN(CCCCOc2ccccc2C=O)CC1
cell number change: -1.55%
AC50 [1]: 0.116 µM [falling, full curve, poor fit]

CC1CN(C(=S)Nc2ccccc2)CC(C)O1 (stereo not drawn)
cell number change: -4.99%

Cc1nn(Cc2ccccc2)c(Cl)c1/C=N/NC(=O)c1cccnc1
cell number change: -2.12%

Cc1ccc(NS(=O)(=O)c2cc(OCC(N)=O)c(C)cc2Cl)cc1
cell number change: 66.7%
AC50 [2]: 29.1 µM [rising, single point]
AC50 [1]: 0.146 µM [rising, partial curve, poor fit]

COc1cccc(-c2nc(C(=O)NCCCN3CCOCC3)cc3c2[nH]c2ccccc23)c1
cell number change: -17.9%
AC50 [1]: 16.4 µM [falling, single point]

COc1ccc2oc(C(=O)OCC(=O)N(Cc3ccccc3)C(C)(C)C)c(C)c2c1
cell number change: -37.7%
AC50 [2]: 29.1 µM [falling, single point]

COCc1cc(C)nc(SCC(=O)Nc2ccc3c(c2)n(C)c(=O)n3C)c1C#N
cell number change: -7.33%

CC(C)OC(=O)c1ccc(N2CCN(c3ccc(F)cc3)CC2)nc1
cell number change: -6.67%
AC50 [1]: 0.146 µM [rising, full curve, poor fit]

COc1ccc(-c2cc(C(=O)N3CCOCC3)c3ccccc3n2)cc1OC
cell number change: 12%

COc1cc(NC(=O)CSCc2ccccc2)c(C(=O)O)cc1OC
cell number change: -9.52%
AC50 [1]: 29.1 µM [rising, single point]

Cc1c(Br)cc(C(=O)NCc2ccco2)c(C)c1C
cell number change: -0.369%
AC50 [1]: 32.6 µM [falling, single point]

Cc1nn(CC(=O)NCC(C)c2ccccc2)c(=O)c2cccn12 (stereo not drawn)
cell number change: 17%
AC50 [2]: 3.66 µM [rising, single point]
AC50 [1]: 2.59 µM [rising, single point]

CCCC(O)(c1ccc(OC)cc1)C(CN(C)C)c1ccccc1 (stereo not drawn)
cell number change: -1.07%

CCS(=O)(=O)Nc1c(C)n(C)n(-c2ccccc2)c1=O
cell number change: -22.6%
AC50 [2]: 0.517 µM [falling, full curve, poor fit]
AC50 [1]: 6.51 µM [falling, single point]

O=C(Cc1cccc(Cl)c1)Nc1ccc(Br)cc1
cell number change: -17%
AC50 [1]: 5.8 µM [falling, full curve, poor fit]

N#Cc1nc(-c2ccc(OCc3ccccc3)cc2)oc1NCCCN1CCOCC1
cell number change: -20.8%
AC50 [1]: 1.64 µM [rising, partial curve]

CCn1c(SCC(=O)c2ccc(O)c(O)c2)nnc1-c1ccccc1
AC50 [1]: 0.82 µM [falling, full curve, poor fit]

CC1(c2ccc(Cl)cc2)NC(=O)N(CC(=O)N2CCCC2)C1=O (stereo not drawn)
cell number change: 2.8%
AC50 [2]: 0.0058 µM [falling, full curve, poor fit]

COc1cc(/C=N/NC(=O)CN(CCc2ccccc2)S(=O)(=O)c2ccc(NC(C)=O)cc2)cc(OC)c1OC
cell number change: 9.73%

CCC1Oc2ccccc2C(=O)N(CC(=O)c2ccc3c(c2)OCCO3)C1=O (stereo not drawn)
AC50 [1]: 29.1 µM [falling, single point]

CC(C)N(CCNC(=O)C1CCC(=O)N1Cc1ccc(F)cc1)Cc1ccccc1 (stereo not drawn)
cell number change: 32.2%
AC50 [2]: 18.4 µM [rising, single point]

CCCCc1nnc(NC(=O)c2ccc(S(=O)(=O)N3CCOCC3)cc2)s1
cell number change: 7.54%
AC50 [1]: 29.1 µM [rising, single point]

COc1ccc(NS(=O)(=O)c2cccc(C(=O)NCC(c3ccco3)N(C)C)c2)cc1 (stereo not drawn)
cell number change: 49.2%
AC50 [2]: 16.4 µM [rising, single point]

CCOc1ccccc1N(C)C(=O)c1sc2ncn(CC(=O)N3CCCCC3C)c(=O)c2c1C (stereo not drawn)
cell number change: 43.6%
AC50 [2]: 0.259 µM [rising, full curve, poor fit]
AC50 [1]: 2.59 µM [falling, full curve]

CCC(=O)NC(c1ccco1)c1cc(Cl)c2ccccc2c1O (stereo not drawn)
cell number change: -13.6%
AC50 [1]: 25.9 µM [rising, partial curve, poor fit]

CC(C)CC(NS(=O)(=O)c1ccccc1)C(=O)O (stereo not drawn)
cell number change: -77.9%
AC50 [2]: 11.6 µM [falling, partial curve]

CCN(CC(=O)NCc1ccc(Cl)cc1)C(=O)CSc1cccc(C(F)(F)F)c1
AC50 [1]: 32.6 µM [falling, single point]

COC(=O)c1[nH]nc2c1C(=O)N(C1CCCCC1)C2=O
cell number change: 2.65%
AC50 [1]: 29.1 µM [rising, single point]

Nc1nc(SCC(=O)NCCc2ccccc2)[nH]c(=O)c1-c1ccccc1
cell number change: -33.6%
AC50 [2]: 29.1 µM [falling, single point]
AC50 [1]: 18.4 µM [falling, single point]
